Results on one substance are retold here after PMC4999519.

Results are given in words; binding and its absence hold for the method and conditions named. Binding seen in cells or lysates may run through a third protein.

This assay concerns the target T1, Perilipin 5 (endogenous) (mouse (endogenous in C2C12, mouse BAT, brown adipocyte line)) (UniProt Q8BVZ1).
T1 sequence: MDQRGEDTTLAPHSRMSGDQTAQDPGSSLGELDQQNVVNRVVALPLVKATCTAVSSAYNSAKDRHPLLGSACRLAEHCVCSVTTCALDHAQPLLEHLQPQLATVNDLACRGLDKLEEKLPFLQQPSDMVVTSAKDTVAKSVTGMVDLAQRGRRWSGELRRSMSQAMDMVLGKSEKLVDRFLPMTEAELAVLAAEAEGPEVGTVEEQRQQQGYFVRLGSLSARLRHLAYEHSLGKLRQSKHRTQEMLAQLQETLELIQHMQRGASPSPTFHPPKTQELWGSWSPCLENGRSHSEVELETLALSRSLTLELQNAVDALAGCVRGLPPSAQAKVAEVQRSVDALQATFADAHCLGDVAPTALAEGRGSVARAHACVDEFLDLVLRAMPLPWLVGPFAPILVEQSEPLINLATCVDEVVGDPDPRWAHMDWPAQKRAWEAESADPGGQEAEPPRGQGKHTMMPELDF
The experiment in a line: co-IP; IP of Perilipin 5, western blot for PGC-1α, histone H3, Creb and actin (Supplementary Fig. 11); cells not given. On the technique in general: Immunoblotting shows a protein as a band on a membrane.

Regarding actin, the binding result was “no binding”.
